PubChem BioAssay AID1259415 (National Center for Advancing Translational Sciences (NCATS), 2018)
“And” between values parts separate entries of the source, which are not always exact repeats. Equal entries are not always repeated. Hit rate of the full screen: of about 410,000 compounds, about 18,000 (4.4%) were called active. Inconclusive means that the source gave no clear call. Such entries were picked first, then a sample of the others. Rule as the data show it: active = activity change below about -60%; inconclusive = no clear call, values can overlap the other calls; inactive = above about -39%. More than one record can exist for a structure, and the calls need not agree.

Experiment: qHTS Assay for inhibitors of the human cytomegalovirus (HCMV)
Conditions: HFF cells, HCMV-luciferase reporter, 72 h; at 57.5 µM; stronger effect = lower value
Procedure, shortened: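 Steps: HFFs plated, 16 h 37C; compounds added; HCMV-luciferase added to MOI 1 PFU/cell; 72 h 37C; OneGlo reagent, 5 min room temperature; luminescence read, normalized to controls.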
% is scaled to controls: 0 for no effect and ±100 for the full control effect.

Row | SMILES | activity change, negative = inhibition
1 | O=C(Nc1ccc2c(c1)CCC2)c1cnn2c1NC(c1ccco1)CC2C(F)(F)F (stereo not drawn) | inconclusive: -56.4%
2 | CN1CC(=O)N(CC(=O)NCc2ccc3c(c2)OCO3)C1=O | active: -102%
3 | CCOc1ccc(NC(=O)N2CCC(n3nnc4cc(C)ccc43)CC2)cc1 | inconclusive: -43.6%
4 | CN(C)S(=O)(=O)c1cccc(NC(=O)CSc2nnnn2-c2ccccc2)c1 | inconclusive: -48.1%
5 | CCOC(=O)c1nnn(-c2nonc2-n2cccc2)c1CN1CCCCC1 | inconclusive: -44.8%
6 | CCCn1cc(S(=O)(=O)c2cc(C)ccc2C)c(=O)c2cc(F)c(N3CCN(CC)CC3)cc21 | inconclusive: -47.9%
7 | CCCCc1c(C)c(C#N)c2nc3ccccc3n2c1NCCN(C)C | inconclusive: -48.5%
8 | COc1ccc(/C=N/NC(=O)c2ccc3ccccc3c2)cc1OS(=O)(=O)c1ccc(NC(C)=O)cc1 | inconclusive: -51.5%
9 | Cc1ccc(C)c(CSc2nnc3[nH]c(=O)cc(-c4ccccc4)n23)c1 | inconclusive: -45%
10 | CC(C)C(=O)Nc1c2c(nn1-c1ccc(F)cc1)CS(=O)(=O)C2 | inconclusive: -45.8%
11 | COc1cc2c(cc1NC(=O)CCCN1C(=O)CCC1=O)oc1ccccc12 | inactive: 25%
12 | CCNC(=O)NC(=O)CSc1ccc2ccccc2c1 | inconclusive: -44.2%
13 | O=C(O)Cc1cn(-c2ccccc2)nc1-c1ccccc1 | inconclusive: -45.4%
14 | Cc1cc(NC(=O)COC(=O)c2cccc(O)c2)no1 | active: -64.5%
15 | Fc1ccc(C2CCCN2Cc2nc(-c3cnccn3)no2)cc1 (stereo not drawn) | inconclusive: -55%
16 | COc1ccccc1CNC(=S)Nc1cc(C)ccc1C | inconclusive: -52%
17 | O=C(Oc1cccc2cccnc12)c1cccc([N+](=O)[O-])c1 | inactive: 6.74%
18 | CC(=O)N1c2ccc(S(=O)(=O)N3CCC(C(=O)N4CCCCC4)CC3)cc2CC1C (stereo not drawn) | inconclusive: -55.9%
19 | CCOc1ccccc1C(=O)NC(C(=O)N(C)Cc1ccc2c(c1)OCO2)C(C)C (stereo not drawn) | inconclusive: -53.4%
20 | Cc1ccc(CN(Cc2ccco2)C(=O)COc2cccc(C)c2C)o1 | inconclusive: -40.1%
21 | COc1cccc(Cn2c(SCc3ccc(C(=O)N4CCCCC4)cc3)nc3ccncc32)c1 | inconclusive: -40.6%
22 | Fc1ccc(N=C2NN=C(c3cc(F)ccc3F)CS2)cc1 | inactive: -34.4%

Row | SMILES | activity change, negative = inhibition
23 | O=C(N/N=C/c1ccccc1Cl)c1n[nH]c2c1CCCC2 | inconclusive: -42.1%
24 | Cc1cc(Cl)ccc1NC(=O)CN1C(=O)COc2ccc(S(=O)(=O)Nc3ccccc3)cc21 | inconclusive: -46%
25 | Cc1cc(C(=O)COc2cc(F)ccc2[N+](=O)[O-])c(C)n1C1CC1 | inconclusive: -49.4%
26 | COc1ccc(C)cc1NC(=O)C(Cc1ccccc1)NS(=O)(=O)c1ccc(Br)s1 (stereo not drawn) | inconclusive: -44.7%
27 | CCCOCn1cc(F)c(=O)[nH]c1=O | inactive: -2.25%
28 | c1ccc2c(NCCc3c[nH]c4ccccc34)c3ccccc3nc2c1 | inconclusive: -52.9%
29 | O=S(=O)(NCc1ccccc1F)c1cccc(S(=O)(=O)N2CCOCC2)c1 | inactive: 0.545%
30 | COC(=O)c1cccc(NC(=O)c2ccc3c(c2)C(=O)N(Cc2cccnc2)C3=O)c1C | inactive: -6.86%
31 | Cc1nc(NC(=O)c2ccccc2)sc1-c1cc(C(=O)N2CCOCC2)nn1Cc1ccccc1 | inactive: -5.73%
32 | CC(=O)Nc1cc2c3c(c1)CCC(=O)N3CCC2 | inactive: -14.9%
33 | Cc1ccc(C)c(C(=O)CSc2nnc(C)s2)c1 | inactive: -16.4%
34 | COc1cccc(C(=O)Nc2ccc(NC(=O)C3CCCCC3C(=O)O)cc2)c1 (stereo not drawn) | inactive: 9.31%
35 | CC(Oc1ccc2c(c1)oc(=O)c1ccccc12)C(=O)NCCN1CCOCC1 (stereo not drawn) | inconclusive: -57.3%
36 | CCOC(=O)c1ccccc1NC(=O)COC(=O)C(CC)Oc1ccccc1 (stereo not drawn) | inconclusive: -49.3%
37 | CCCOc1ccc(N2C(=O)CC(N3CC=C(c4ccccc4)CC3)C2=O)cc1 (stereo not drawn) | inactive: -32.6%
38 | O=C(N/N=C(\Cc1ncc[nH]1)c1ccccc1)c1cccnc1 | inconclusive: -55%
39 | CCOc1ccc2oc(C(=O)NCC(C)(C)CN(C)C)c(C)c2c1 | inconclusive: -41.7%
40 | CCCCCC(=O)N1C[C@H](n2cc(-c3ccc(F)cc3)nn2)[C@@H](O)C[C@@H]1c1ccc(Cl)cc1 | inconclusive: -41.1%
41 | CC(OC(=O)COc1ccccc1Cc1ccccc1)C(=O)N(C)c1ccccc1 (stereo not drawn) | inactive: 2.88%
42 | CN(CCCC(=O)Nc1nccs1)S(=O)(=O)c1ccc(Cl)cc1 | active: -64.7%
43 | CC(=O)C(Cc1cnc(Cl)s1)(Cc1cnc(Cl)s1)C(C)=O | inconclusive: -43.6%
44 | CCOc1ccc(NC(=O)CC(=O)Nc2ccc(OCC)cc2)cc1 | inconclusive: -44.2%

Row | SMILES | activity change, negative = inhibition
45 | COc1ccccc1C(=O)NC(C(=O)NCCc1nc2ccccc2[nH]1)=C(C)C | inactive: -18.5%
46 | CC(=O)c1ccc(-n2c(=O)[nH]c(=O)c3c(N)c(C(=O)c4ccc(Cl)cc4)sc32)cc1 | inconclusive: -52.8%
47 | O=C1/C(=C/c2ccccc2)SC(=S)N1CCCC(=O)N1CCCCC1CCO (stereo not drawn) | active: -101%
48 | O=C(NC(=S)Nc1cccc2c(O)cccc12)c1ccco1 | inactive: -27.2%
49 | CCCc1cc(=O)n2[nH]cc(-c3ccc(Cl)cc3)c2n1 | active: -96.1%
50 | O=C(/C=C/c1ccccc1Cl)NCCc1ccc(F)cc1 | inactive: -20.8%
51 | CCN(CC)c1ccc(C=Nc2ccc(N(C)C)cc2)c(O)c1 | inconclusive: -47.6%
52 | COc1ccc(N2CCN(C(=O)CSc3nnc4n3C(C)(C)Cc3ccccc3-4)CC2)cc1 | active: -63.6%
53 | CCCCN(CC)C(=O)Cc1ccc(Br)cc1 | inconclusive: -53.5%
55 | COCCSc1ccccc1C(=O)Nc1ccc2c(c1)OCO2 | inconclusive: -55.3%
56 | COc1ccc([C@@H]2CC(=O)c3c(O)cc(O[C@@H]4OC(CO[C@@H]5OC(C)[C@H](O)[C@H](O)C5O)[C@@H](O)[C@@H](O)C4O)cc3O2)cc1O (stereo partly drawn) | inconclusive: -53.3%
57 | Cc1ccc(OCCCCN2CCCCC2)cc1 | inactive: 14.3%
58 | CSc1nsc(/C=C/Nc2ccc(C(=O)O)cc2)c1C#N | inactive: -1.54%
59 | CCCCCn1c(=O)[nH]c2cc(C(=O)NC(C)CC)ccc2c1=O (stereo not drawn) | inactive: -2.35%
60 | CCOC(=O)C1CCCN(Cc2c(F)cccc2Cl)C1 (stereo not drawn) | active: -75.5%
61 | COc1ccc(/C=N\NC(=O)c2ccccc2Br)cc1COc1ccccc1 | inconclusive: -54.3%
62 | CC(C)CCNC(=O)c1ccc(-n2cnc3cccnc32)cc1 | inconclusive: -56.9%
63 | CC(CC(=O)N1CCN(c2ccccc2)CC1)S(=O)(=O)c1ccc2c(c1)NC(=O)CO2 (stereo not drawn) | inconclusive: -47.1%
64 | CC(C)(C)n1nnnc1C(C1CC1)N1C(=O)C(=O)c2ccccc21 (stereo not drawn) | active: -77.5%
65 | CC1CCCN(CCCNC(=O)c2cc3c(Cl)nc4ccccc4c3s2)C1 (stereo not drawn) | inactive: -17.9% and active: -90.7%
66 | CCc1cccc(CC)c1NC(=S)NCCc1c(C)[nH]c2ccc(C)cc12 | active: -92.9%

Nothing new here: entries from further up.
Row | SMILES | activity change, negative = inhibition
46 | CC(=O)c1ccc(-n2c(=O)[nH]c(=O)c3c(N)c(C(=O)c4ccc(Cl)cc4)sc32)cc1 | inconclusive: -52.8%
47 | O=C1/C(=C/c2ccccc2)SC(=S)N1CCCC(=O)N1CCCCC1CCO (stereo not drawn) | active: -101%

Further results:

Row | SMILES | activity change, negative = inhibition
67 | Cc1cc(/C=N/n2cnnc2)c(C)n1-c1ccc(OCc2ccccc2F)cc1 | active: -92.9%
68 | O=C(NCc1ccccn1)[C@@H]1CCCN1C(=O)[C@@H]1CCCN1 | inactive: -6.67%
69 | Cc1ccc(S(=O)(=O)N2CCCCC2)cc1NC(=O)COc1ccccc1 | inactive: 18.4%
70 | Cc1ccccc1NC(=O)/C(C#N)=C\c1ccsc1 | inconclusive: -42.3%
71 | CC(=O)Nc1ccc(Sc2ncccc2C(=O)Nc2ccc(F)cc2)cn1 | inconclusive: -41.1%
72 | Cc1cc(C)c2c(n1)SCC(=O)N2CC(=O)Nc1cccc(Cl)c1 | inactive: 8.47%
73 | COc1ccc(N2CC(NC(=O)/C=C\c3ccccc3)CC2=O)cc1OC (stereo not drawn) | inactive: -3.67%
74 | O=C(CNC(=O)Cc1ccccc1)N=Nc1c(O)[nH]c2ccc(Br)cc12 | inconclusive: -52.1%
75 | CN(C)CCN(C(=O)c1cccc(Cl)c1)c1nc2c(Cl)cccc2s1 | inconclusive: -42.3%
76 | CCCCOc1ccc(CSCCN=C(N)N)cc1 | active: -62.1%
77 | O=C1c2ccccc2C(=O)c2c(NCc3cccnc3)cccc21 | inconclusive: -49.1%
78 | CC(C(=O)NCCC1=CCCCC1)c1ccc([N+](=O)[O-])cc1 (stereo not drawn) | inconclusive: -47.6%
79 | O=C(COc1ccccc1[N+](=O)[O-])Nc1cccnc1 | inconclusive: -54.2%
80 | COCC(C)NC(=O)CSc1nc(-c2ccccc2)c(-c2ccccc2)o1 (stereo not drawn) | active: -67.2%
81 | Nc1nc(Sc2ccc([N+](=O)[O-])c3nonc23)c2[nH]cnc2n1 | active: -85%
82 | CCc1cccc(C)c1NC(=O)c1cnn(-c2ccc(OC)cc2)c1C1CCN(C(=O)OC(C)(C)C)CC1 | inconclusive: 0%
83 | Cn1nnnc1Sc1ncnc2scc(-c3ccc([N+](=O)[O-])cc3)c12 | active: -100%
84 | COc1cccc(NC(=O)c2sc(NC(=O)c3ccncc3)nc2C)c1 | inconclusive: 0%
85 | FC(F)(F)c1cccc(N2CCN(C(=S)NC3CCCCC3)CC2)c1 | inconclusive: -49.4%
86 | Fc1ccccc1N1CCN(C2CCCN(Cc3ccccc3C(F)(F)F)C2)CC1 (stereo not drawn) | inactive: -0.844%
87 | CC(=O)c1cccc(CN2CCN(CCC(C)C)C(CCO)C2)c1 (stereo not drawn) | inconclusive: -40%
88 | CCN1CCCC1CNC(=O)c1cc(N)ccc1OC (stereo not drawn) | inactive: 14.8%
